Laboratory results from paper PMC10203227.
No constants are given. Whether binding was seen depends on the method and setting. Binding seen in cells or lysates may run through a third protein. Some binding calls cover weakened binding; strength is not graded here.

Sequences of proteins named here, by UniProt entry; tags and fusion partners are left off.
UniProt O75807: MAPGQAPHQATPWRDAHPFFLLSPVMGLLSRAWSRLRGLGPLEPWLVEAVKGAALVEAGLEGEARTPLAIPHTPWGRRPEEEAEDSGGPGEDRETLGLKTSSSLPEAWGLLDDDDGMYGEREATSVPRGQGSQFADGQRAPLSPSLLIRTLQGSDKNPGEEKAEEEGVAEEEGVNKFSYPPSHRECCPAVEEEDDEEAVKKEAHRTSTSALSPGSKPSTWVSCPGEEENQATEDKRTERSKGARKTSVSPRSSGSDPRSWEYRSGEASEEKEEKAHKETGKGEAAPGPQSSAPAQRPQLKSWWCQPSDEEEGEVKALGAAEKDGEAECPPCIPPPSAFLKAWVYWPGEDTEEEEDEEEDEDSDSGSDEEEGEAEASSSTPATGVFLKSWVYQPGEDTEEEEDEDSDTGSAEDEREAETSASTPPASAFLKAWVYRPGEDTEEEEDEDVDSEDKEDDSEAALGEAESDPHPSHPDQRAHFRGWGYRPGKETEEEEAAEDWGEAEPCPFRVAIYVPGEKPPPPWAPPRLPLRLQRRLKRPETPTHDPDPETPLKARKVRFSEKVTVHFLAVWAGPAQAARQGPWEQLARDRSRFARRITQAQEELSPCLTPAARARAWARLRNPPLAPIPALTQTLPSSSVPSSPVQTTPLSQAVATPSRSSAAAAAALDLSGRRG
UniProt Q00987: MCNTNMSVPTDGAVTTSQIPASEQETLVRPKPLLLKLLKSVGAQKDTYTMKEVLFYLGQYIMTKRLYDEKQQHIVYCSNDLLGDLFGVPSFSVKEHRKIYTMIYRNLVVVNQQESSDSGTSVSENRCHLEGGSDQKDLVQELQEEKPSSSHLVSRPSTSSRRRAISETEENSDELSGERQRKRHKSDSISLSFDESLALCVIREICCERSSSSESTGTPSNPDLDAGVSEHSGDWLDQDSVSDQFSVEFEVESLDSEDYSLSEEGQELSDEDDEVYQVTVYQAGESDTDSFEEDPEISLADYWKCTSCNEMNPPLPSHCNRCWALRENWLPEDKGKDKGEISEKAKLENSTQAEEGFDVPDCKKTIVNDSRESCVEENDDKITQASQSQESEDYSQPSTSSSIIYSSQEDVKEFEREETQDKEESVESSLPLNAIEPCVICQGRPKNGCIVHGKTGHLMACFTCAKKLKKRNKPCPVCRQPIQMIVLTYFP

Biological target: growth arrest and DNA-damage-inducible gene 34 (GADD34) (human (endogenous in A549 or U2OS)) (UniProt O75807)
Assay: co-IP; cells transfected with scrambled or MDM2 siRNA, treated with MG132 (10 uM, 6 h); lysates in 1% Nonidet P-40 lysis buffer (50 mM Tris-HCl pH 7.6, 150 mM NaCl) immunoprecipitated with anti-GADD34 polyclonal antibody or control IgG, Protein G PLUS-Agarose, washed with 0.1% Nonidet P-40 lysis buffer; Western blot with anti-MDM2

MDM2 (from UniProt Q00987 1-491)
binding: binds
